{"sequences": {"note": "The chains behind the UniProt entries cited, without tags or fusion partners.", "UniProt P53350, whole entry, looked up": "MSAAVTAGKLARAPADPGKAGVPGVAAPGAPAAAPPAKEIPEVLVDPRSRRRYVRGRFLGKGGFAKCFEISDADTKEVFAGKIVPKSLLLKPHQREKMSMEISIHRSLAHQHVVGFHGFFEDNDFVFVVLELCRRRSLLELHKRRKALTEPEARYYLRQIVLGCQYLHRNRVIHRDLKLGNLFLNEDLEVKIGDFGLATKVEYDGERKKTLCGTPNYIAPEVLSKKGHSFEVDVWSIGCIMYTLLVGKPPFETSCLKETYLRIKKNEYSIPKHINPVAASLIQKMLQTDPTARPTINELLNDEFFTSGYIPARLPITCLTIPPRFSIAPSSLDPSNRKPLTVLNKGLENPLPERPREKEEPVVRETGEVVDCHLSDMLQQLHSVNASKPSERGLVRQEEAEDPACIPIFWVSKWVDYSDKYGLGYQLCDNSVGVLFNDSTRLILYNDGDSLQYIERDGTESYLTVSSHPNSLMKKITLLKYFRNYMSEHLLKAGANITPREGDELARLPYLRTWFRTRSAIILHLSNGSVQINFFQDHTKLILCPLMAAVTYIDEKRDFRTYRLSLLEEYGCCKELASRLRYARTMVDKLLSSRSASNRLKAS"}, "source": "PubChem BioAssay AID720504", "about": "(National Center for Advancing Translational Sciences (NCATS), 2013)", "note": "The whole screen tested about 360,000 compounds, of which about 10,000 (2.8%) were called active. The shares of active, inactive and inconclusive entries below differ from those in the screen. Calls follow the shape of the dose curve; as a rule, active = well fitted inhibition curve with a large enough effect; inconclusive = small, poorly fitted or top-dose-only effect; inactive = flat fitted curve, though single readings scatter. Potencies of inconclusive entries are doubtful fits and often do not repeat. % is scaled to controls: 0 for no effect and ±100 for the full control effect; potency is read from the fitted curve at half-maximal effect.", "data": [{"biological_target": "Serine/threonine-protein kinase PLK1 (Homo sapiens) (UniProt P53350)", "assay": "qHTS for Inhibitors of PLK1-PDB (polo-like kinase 1 - polo-box domain): Primary Screen; also: nearly all actives have a fitted effect of over 65% in size; as to max response, negative = inhibition: series mostly up to about 57 µM", "conditions": "Plk1 PBD binding of FITC phosphopeptide, fluorescence polarization", "values": [{"smiles": "Cc1nc([N+](=O)[O-])cn1CC(=O)c1ccc(OC(F)(F)F)cc1", "Potency": "inconclusive: 21.2 µM [inhibitor, single point]"}, {"smiles": "O=c1oc2c(-c3cccc(F)c3)cc(O)cc2s1", "max response, negative = inhibition": "inconclusive: -36.4% [inhibitor]"}, {"smiles": "O=[N+]([O-])c1cnccc1Nc1ccccc1", "Potency": "active: 26.7 µM"}, {"smiles": "Cn1c(C(=O)Nc2ccc3c(c2)OCO3)cc2c(=O)n(C)c3ccccc3c21", "max response, negative = inhibition": "inconclusive: -35.8% [inhibitor]"}, {"smiles": "CCC(CC)c1nnc(NC(=O)Cc2ccccc2[N+](=O)[O-])s1", "Potency": "inconclusive: 15 µM [inhibitor, partial curve]"}, {"smiles": "CCC(=O)N1N=C(c2ccc(C)o2)CC1c1ccc(Br)cc1", "note": "(stereo unspecified)", "max response, negative = inhibition": "inactive: -25.7%"}, {"smiles": "NC(=O)C1CCN(c2cc(Cl)nc(N)n2)CC1", "Potency": "active: 8.44 µM"}, {"smiles": "CCOc1ccccc1NC(=S)N1CCN(c2ccc(OC)cc2)CC1", "max response, negative = inhibition": "inactive: -2.56%"}, {"smiles": "O=C(O)CSc1cc(NS(=O)(=O)c2ccc(Br)cc2)c2ccccc2c1O", "Potency": "active: 4.74 µM"}, {"smiles": "Cc1ccccc1C(=O)N1[C@@H](C(C)C)COc2cc(Br)ccc2S1(=O)=O", "Potency": "inconclusive: 23.8 µM [inhibitor, single point]"}, {"smiles": "COc1ccc(-n2c(C)nc3cc(C(=O)N4CCOCC4)ccc32)cc1", "max response, negative = inhibition": "inconclusive: -30.9% [inhibitor]"}, {"smiles": "COC(=O)c1ccc(CSc2nncn2N)cc1", "Potency": "inconclusive: 18.9 µM [inhibitor, partial curve]"}, {"smiles": "CCC(=O)N1CCc2cc(S(=O)(=O)CCC(=O)Nc3nc(C)cs3)ccc21", "max response, negative = inhibition": "inconclusive: -30.8% [inhibitor]"}, {"smiles": "CC1CCN(C(=O)c2ccc(-c3ccccc3Cl)o2)CC1", "max response, negative = inhibition": "inactive: -8.18%"}, {"smiles": "O=C1/C(=C/c2ccc([N+](=O)[O-])cc2)C=C(c2ccccc2)N1c1ccccc1", "max response, negative = inhibition": "inactive: -21.5%"}, {"smiles": "Cc1ccc(C)c2nc(N3CCCC3)c(C#N)cc12", "Potency": "inconclusive: 29.9 µM [inhibitor, single point]"}, {"smiles": "O=C(COc1ccc(Cl)cc1Cl)NNC(=S)NC(=O)c1ccco1", "Potency": "inconclusive: 29.9 µM [inhibitor, partial curve]"}, {"smiles": "CC(C)(C)c1ccc(C(=O)NNc2ccc(F)cc2F)cc1", "Potency": "inconclusive: 37.7 µM [inhibitor, single point]"}, {"smiles": "O=C(NCc1ccc2c(c1)OCO2)c1cccc2c1C(=O)N(C1CCCCC1)C2", "max response, negative = inhibition": "inactive: -5.96%"}, {"smiles": "COCCn1nnnc1C(c1cc2cc(OC)c(OC)cc2[nH]c1=O)N1CCN(c2ccc(O)cc2)CC1", "note": "(stereo unspecified)", "Potency": "inconclusive: 37.7 µM [inhibitor, single point]"}, {"smiles": "Cc1ccc(C2CC(=O)C=C(NCC(C)C)C2)cc1", "note": "(stereo unspecified)", "Potency": "active: 26.7 µM"}]}]}
